Source: patent US20240350430A1, “GROWTH INHIBITOR OF METASTATIC HUMAN PROSTATE CANCER CELLS” (Watanabe Oyster Laboratory Co., Ltd., priority 2021, published 2024)

Test system: PC-3 cells
Experiment: Cell growth of PC-3 cells (cell counting)
Type: cell-based, human
Conditions: three days, wortmannin 10 or 100 nM, PD98059 1 or 10 μM, staurosporine 1 or 10 nM
Method: The PC-3 and DU-145 cells (the cell number of 1×10^5/in 1 ml of a culture fluid per hole using a 24-hole plate) were cultured in a DMEM culture fluid (containing 10% of FBS, 1% of P/S, and 1% of fungizone) containing the DHMBA (1 and 10 μM) under 5% of CO2, at 37° C., for one, two, three, four, and six days. […] The cell number in the cell suspension was counted by the method described in the item of “Measurement of Cell Number.”
After the culture of the cells, 0.1 ml of 0.05% trypsin-EDTA solution obtained by dissolving the cells adhering to the bottom surface of the culture dish in PBS (Thermo Fisher Scientific, Waltham, MA, USA) not containing Ca^2+/Mg^2+ was added, incubation was performed at 37° C. for two minutes to release the adhering cells, and 0.9 ml of the DMEM culture fluid containing 10% of FBS and 1% of P/S was added to stop the reaction. The visible cells were counted by the Olympus MTV-3 microscope using a hemocytometer (Sigma-Aldrich). […]
In FIGS. 1(D) and 1(E), the PC-3 cells (1×10^5 cells/per well of a 24-well plate) were cultured under 5% of CO2, at 37° C., for three (FIG. 1D) and six (FIG. 1E) days in a DMEM culture fluid (containing 10% of FBS, 1% of P/S, and 1% of fungizone) containing the DHMBA (0.01, 0.1, 1, 10, 100, and 1000 μM). After the culture, the cells adhered to the bottom surface of the dish were removed and counted. […]

CN[C@@H]1C[C@H]2O[C@@](C)([C@@H]1OC)n1c3ccccc3c3c4c(c5c6ccccc6n2c5c31)C(=O)NC4 [staurosporine, reference compound]
cell growth in the presence of intracellular signaling inhibitor alone: inhibited
